Results reported in article PMC10915996.

The chains behind the UniProt entries cited, without tags or fusion partners. Where a name states a change or a piece, a line headed by the entry shows the natural chain unless it says otherwise. A line that says so, or that is headed by a name, gives the form on record, which may keep a tag or linker.
UniProt P56817: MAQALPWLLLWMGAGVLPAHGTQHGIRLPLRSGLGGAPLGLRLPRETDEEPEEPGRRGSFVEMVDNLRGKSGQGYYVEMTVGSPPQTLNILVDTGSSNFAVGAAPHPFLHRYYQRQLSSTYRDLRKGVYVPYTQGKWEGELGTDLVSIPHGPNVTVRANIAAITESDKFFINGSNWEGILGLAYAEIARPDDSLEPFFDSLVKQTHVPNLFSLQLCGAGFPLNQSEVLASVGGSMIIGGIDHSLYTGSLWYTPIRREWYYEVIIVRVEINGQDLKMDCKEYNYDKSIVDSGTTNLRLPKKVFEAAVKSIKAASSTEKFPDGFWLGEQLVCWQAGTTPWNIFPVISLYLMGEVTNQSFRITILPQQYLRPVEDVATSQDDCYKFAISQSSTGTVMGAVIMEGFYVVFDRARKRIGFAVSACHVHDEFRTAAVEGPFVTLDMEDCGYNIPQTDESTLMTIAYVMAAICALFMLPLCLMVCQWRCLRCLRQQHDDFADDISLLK
ubiquitin-specific protease 10 (USP10), HA-tagged (Q14694-3, form named): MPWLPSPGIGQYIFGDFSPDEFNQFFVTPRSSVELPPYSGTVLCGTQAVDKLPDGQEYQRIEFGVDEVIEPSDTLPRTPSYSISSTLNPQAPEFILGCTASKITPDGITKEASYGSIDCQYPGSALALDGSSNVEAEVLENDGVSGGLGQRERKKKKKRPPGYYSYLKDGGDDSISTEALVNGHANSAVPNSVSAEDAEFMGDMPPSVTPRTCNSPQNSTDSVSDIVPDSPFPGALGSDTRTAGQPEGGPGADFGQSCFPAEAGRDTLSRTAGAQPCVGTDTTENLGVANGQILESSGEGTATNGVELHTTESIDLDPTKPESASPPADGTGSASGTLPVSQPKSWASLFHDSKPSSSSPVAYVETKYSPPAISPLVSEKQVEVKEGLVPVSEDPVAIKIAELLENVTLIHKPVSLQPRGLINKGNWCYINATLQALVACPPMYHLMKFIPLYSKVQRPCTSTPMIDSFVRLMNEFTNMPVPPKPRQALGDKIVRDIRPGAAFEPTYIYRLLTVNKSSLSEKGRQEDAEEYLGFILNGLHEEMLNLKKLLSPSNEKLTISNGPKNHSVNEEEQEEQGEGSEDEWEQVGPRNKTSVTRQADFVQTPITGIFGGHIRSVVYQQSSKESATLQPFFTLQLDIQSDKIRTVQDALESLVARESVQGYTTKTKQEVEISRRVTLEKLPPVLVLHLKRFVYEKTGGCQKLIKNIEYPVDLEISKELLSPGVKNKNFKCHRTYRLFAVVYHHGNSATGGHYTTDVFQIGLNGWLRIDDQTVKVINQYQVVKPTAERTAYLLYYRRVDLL

Legend:
[1] = biological target: β-site amyloid precursor protein-cleaving enzyme 1 (BACE1), Flag-tagged (UniProt P56817); assay: co-IP; HEK 293T cells cotransfected with Flag-BACE1 and HA-USP10 for 48 hours; precipitated with anti-Flag magnetic beads; detected with HA rabbit polyclonal antibody
[2] = biological target: ubiquitin-specific protease 10 (USP10), HA-tagged (UniProt Q14694); assay: co-IP; HEK 293T cells cotransfected with Flag-BACE1 and HA-USP10 for 48 hours; precipitated with anti-HA magnetic beads; western blotting with Flag rabbit polyclonal antibody

binding [1] | binding [2] | Substance
binds |  | ubiquitin-specific protease 10 (USP10), HA-tagged (from UniProt Q14694-3 1-802) (enzyme)
 | binds | β-site amyloid precursor protein-cleaving enzyme 1 (BACE1), Flag-tagged (from UniProt P56817)

Results are given in words; binding and its absence hold for the method and conditions named. Binding seen in cells or lysates may run through a third protein. A result given as binding can be weak or reduced; the word gives no strength.
